According to paper PMC3031606:
Results are given in words; binding and its absence hold for the method and conditions named. For some assays here: A result given as binding can be weak or reduced; the word gives no strength. For some assays here: In cells and extracts the contact can be indirect. For some assays here: Sequences can lack the tags named with a protein. Blank lines part the entries; values can stand above or below the binder they belong to.

Assays:
[1] = target: LHP1 chromo shadow domain (CSD) fused to the GAL4 DNA binding domain (Arabidopsis thaliana); test: two-hybrid; GAL4 system in yeast PJ69-4A; LHP1 or truncated LHP1 fused to the GAL4 DNA binding domain as bait, λACT Arabidopsis cDNA library clone / pAD-LIF2 as prey; selection on medium lacking histidine, leucine and tryptophan with 2 mM 3-amino-1,2,4-triazole, β-galactosidase assay; confirmed by independent cotransformations
[2] = target: glutathione S transferase (GST) alone; test: pull-down; E. coli extracts with GST- and His6-tagged proteins mixed in a 1:2 ratio with glutathione Sepharose 4B beads, room temperature 1 h, BB binding buffer, 5 washes; His6-tagged protein detected by anti-His6-peroxidase blot; in duplicate

binding [1]: binds
B1: LHP1-Interacting Factor2 (LIF2), partial cDNA clone aa 204-495 isolated in the two-hybrid screen (domain or fragment, UniProt Q9ASP6 204-495)
chain: PKNWTEDEFRKVIEDVGPGVENIELIKDPTNTTRNRGFAFVLYYNNACADYSRQKMIDSNFKLEGNAPTVTWADPKSSPEHSAAAAQVKALYVKNIPENTSTEQLKELFQRHGEVTKIVTPPGKGGKRDFGFVHYAERSSALKAVKDTERYEVNGQPLEVVLAKPQAERKHDPSSYSYGAAPTPAPFVHPTFGGFAAAPYGAMGAGLGIAGSFSQPMIYGRGAMPTGMQMVPMLLPDGRVGYVLQQPGMPMAAAPPQRPRRNDRNNGSSGGSGRDNSHEHDGNRGGRRYRPY

binding [2]: no binding
B2: LHP1 protein fused to a His6 tag (protein, UniProt Q946J8 1-445)
chain: MKGASGAVKKKPQVLNEAGEAETAVETVGESRKISGDGGFGSDDGGGGGGGGSGESILREIGDDRPTEDGDEEEEEDEDEDDGGDEEDEEGEGEGGQEERPKLDEGFYEIEAIRRKRVRKGKVQYLIKWRGWPETANTWEPLENLQSIADVIDAFEGSLKPGKPGRKRKRKYAGPHSQMKKKQRLTSTSHDATEKSDSSTSLNNSSLPDIPDPLDLSGSSLLNRDVEAKNAYVSNQVEANSGSVGMARQVRLIDNEKEYDPTLNELRGPVNNSNGAGCSQGGGIGSEGDNVRPNGLLKVYPKELDKNSRFIGAKRRKSGSVKRFKQDGSTSNNHTAPTDQNLTPDLTTLDSFGRIARMGNEYPGVMENCNLSQKTKIEELDITKILKPMSFTASVSDNVQEVLVTFLALRSDGKEALVDNRFLKAHNPHLLIEFYEQHLKYNRTP
